Measurements: patent US7205403B2, “8-Heteroaryl xanthine adenosine A2B receptor antagonists” (King Pharmaceuticals Research and Development, Inc., priority 2002, dated 2007)

The chains behind the UniProt entries cited, without tags or fusion partners. Where a name states a change or a piece, a line headed by the entry shows the natural chain unless it says otherwise.
UniProt P0DMS8, whole entry: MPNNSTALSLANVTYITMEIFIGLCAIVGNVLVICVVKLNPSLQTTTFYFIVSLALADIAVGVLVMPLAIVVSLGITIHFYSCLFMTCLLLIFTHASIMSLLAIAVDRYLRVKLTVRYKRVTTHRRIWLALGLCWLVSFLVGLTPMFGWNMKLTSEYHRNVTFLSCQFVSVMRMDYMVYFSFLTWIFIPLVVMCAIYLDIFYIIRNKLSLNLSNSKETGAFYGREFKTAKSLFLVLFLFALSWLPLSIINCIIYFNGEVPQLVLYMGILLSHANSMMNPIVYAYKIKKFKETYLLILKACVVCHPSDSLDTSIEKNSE
UniProt P30542, whole entry: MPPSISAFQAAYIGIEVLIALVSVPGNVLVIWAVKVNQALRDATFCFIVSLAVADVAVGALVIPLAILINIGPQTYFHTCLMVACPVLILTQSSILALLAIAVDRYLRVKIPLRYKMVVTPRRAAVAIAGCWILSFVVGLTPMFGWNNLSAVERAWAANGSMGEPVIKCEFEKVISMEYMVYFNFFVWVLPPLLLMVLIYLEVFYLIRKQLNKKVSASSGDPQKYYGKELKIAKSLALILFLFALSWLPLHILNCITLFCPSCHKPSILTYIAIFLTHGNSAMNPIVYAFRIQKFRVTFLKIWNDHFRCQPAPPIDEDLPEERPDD
UniProt P29275, whole entry: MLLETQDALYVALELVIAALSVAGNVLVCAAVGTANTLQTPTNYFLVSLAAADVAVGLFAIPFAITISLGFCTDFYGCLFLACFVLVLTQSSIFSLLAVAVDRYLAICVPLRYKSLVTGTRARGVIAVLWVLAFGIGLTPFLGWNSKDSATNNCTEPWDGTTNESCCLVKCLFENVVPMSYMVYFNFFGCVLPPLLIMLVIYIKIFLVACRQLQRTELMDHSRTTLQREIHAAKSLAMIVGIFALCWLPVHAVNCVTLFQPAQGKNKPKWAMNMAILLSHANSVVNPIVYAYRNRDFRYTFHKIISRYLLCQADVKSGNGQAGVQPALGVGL

Tests used:
[1] = molecular target: human A3 adenosine receptor (Homo sapiens, UniProt P0DMS8); test: [3H]MRE3008F20 binding to human A3 receptors expressed in CHO cells; settings: read-out: Ki, [3H]MRE3008F20 binding to human A3 receptors expressed in CHO cells; geometric mean (95% confidence interval); >1000 = no appreciable binding
[2] = molecular target: human A1 adenosine receptor (Homo sapiens, UniProt P30542); test: [3H]DPCPX binding to human A1 receptors expressed in CHO cells; settings: read-out: Ki, [3H]DPCPX binding to human A1 receptors expressed in CHO cells; geometric mean (95% confidence interval); >1000 = no appreciable binding
[3] = molecular target: human A2A adenosine receptor (Homo sapiens, UniProt P29274); test: [3H]ZM241385 binding to human A2A receptors expressed in CHO cells; settings: read-out: Ki, [3H]ZM241385 binding to human A2A receptors expressed in CHO cells; geometric mean (95% confidence interval); >1000 = no appreciable binding
[4] = molecular target: human A2B adenosine receptor (Homo sapiens, UniProt P29275); test: [3H]DPCPX binding to human A2B receptors expressed in HEK293 cells; settings: read-out: Ki, [3H]DPCPX binding to human A2B receptors expressed in HEK293 cells; geometric mean (95% confidence interval); >1000 = no appreciable binding

Measured: Ki

CCCn1c(=O)c2[nH]c(-c3cc(OCC(=O)Nc4ccc5c(c4)OCO5)no3)nc2n(CCC)c1=O
> 1000 nM: [1] | [2] | [3]

CCCn1c(=O)c2[nH]c(-c3cc(COC(=O)c4ccccc4)on3)nc2n(CCC)c1=O
> 1000 nM: [1] | [4] | [2] | [3]

The match of structure and compound is tentative.
